From PubChem BioAssay AID624297 (National Center for Advancing Translational Sciences (NCATS), 2012)
Hit rate of the full screen: of about 340,000 compounds, about 6,200 (1.8%) were called active. Inconclusive results, whose numbers are uncertain, are shown with a selection of clear calls. Calls come from the whole dose curve; as a rule, active = well fitted activation curve with a large enough effect; inconclusive = small, poorly fitted or top-dose-only effect; inactive = no such curve, though single readings can be large or run the other way. Potencies of inconclusive entries are doubtful fits and often do not repeat.

experiment: A quantitative high throughput screen for small molecules that induce DNA re-replication in SW480 colon adenocarcinoma cells.; note: nearly all actives have a fitted effect of over 55% in size; for re-replication activation: % of control where 0% means no effect; conditions: Hoechst DNA content imaging, 48 h; re-replication activation: at 46.1 µM (top of the series)
Method in brief: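 Image-based read-out: total Hoechst fluorescence of nuclei (405 nm excitation, 500-530 nm emission), with hits raising the fraction of high-intensity nuclei. SW480 colon cells incubated 48 hr with compounds at 37 C.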
Potency is the fitted concentration of half-maximal effect.

SMILES	Potency	re-replication activation
CC1CC(C)CN(C(=O)COc2ccc([N+](=O)[O-])cc2Cl)C1 (stereo unspecified)	inconclusive: 14.6 µM [activator, partial curve, poor fit]	
CN(C)c1ccc(/C=C2\SC(=S)N(Nc3ncc(C(F)(F)F)cc3Cl)C2=O)cc1	inconclusive: 18.4 µM [activator, single point]	
Cc1ccc(NC(=O)c2ccc(S(=O)(=O)N3CCCCCC3)cc2)nc1		inactive: 3.48%
COc1ccccc1C(=O)NNC(=S)NC(=O)c1sc2ccccc2c1Cl	inconclusive: 20.6 µM [activator, partial curve, poor fit]	
Cc1nn(-c2nnc(NCc3ccccc3)nn2)c(C)c1Br		inactive: 111%
O=C(Cn1c(=O)oc2cccnc21)Nc1ccc(C(F)(F)F)cc1	inconclusive: 5.8 µM [activator, full curve, poor fit]	
N#CC(C#N)=c1ccc2c(c1)NC1(CCCCC1)N=2	active: 13 µM	
Cc1c(Cl)ccc(S(=O)(=O)NCCCn2ccnc2)c1Cl	inconclusive: 1.64 µM [activator, partial curve, poor fit]	
CCc1nc(NCCc2ccccn2)c2nnn(Cc3ccccc3F)c2n1		inactive: -10.8%
Fc1ccc2c(c1)Sc1ccc(Cl)cc1CC2N1CCN(CCC2OCCO2)CC1 (stereo unspecified)	inconclusive: 25.9 µM [activator, single point]	
Cc1cc2ccccn2c1C(=O)c1ccc(NN)c([N+](=O)[O-])c1	inconclusive: 29.1 µM [activator, single point]	
O=C(N/N=C/c1cccc2ccccc12)c1n[nH]c2c1CCCC2	active: 5.8 µM	
CC1(C)Cc2c(C#N)c(NCc3ccco3)nc(-c3ccco3)c2CO1	inconclusive: 29.1 µM [activator, single point]	
COC(=O)c1ccccc1NCc1cc(=O)oc2cc(O)c(O)cc12	inconclusive: 20.6 µM [activator, single point]	
CN(Cc1c(C(=O)N/N=C/c2cccc(Cl)c2)nnn1-c1nonc1N)c1ccccc1	inconclusive: 5.8 µM [activator, full curve, poor fit]	
O=C(Nc1nnc(C2CCCCC2)s1)C1CC(=O)N(c2ccc(F)cc2)C1 (stereo unspecified)		inactive: -11.5%
COc1ccc2c(c1)OC[C@H]1[C@H]2N2C(=O)c3cc(F)ccc3NC(=O)[C@@]2(C)[C@H]1c1ccccc1	inconclusive: 32.6 µM [activator, partial curve, poor fit]	
CN(c1ccccc1)S(=O)(=O)c1ccc(C(=O)NCCc2ccccc2)cc1	inconclusive: 18.4 µM [activator, single point]	
COc1cc(/C=C2/NC(=O)N(Cc3ccccc3F)C2=O)cc(OC)c1OC		inactive: -11.2%
CNC(=O)/C=C1\NC(C)(C)Cc2c1ccc1ccccc21	inconclusive: 20.6 µM [activator, single point]	
O=[N+]([O-])c1ccc2[nH]cc(S(=O)(=O)N3CCN(c4cccc(Cl)c4)CC3)c2c1	inconclusive: 29.1 µM [activator, single point]	
C/C(=N\NC(=O)c1cc(C2CC2)nc2ccccc12)c1ccc(O)cc1O	active: 1.46 µM	
Cc1nnc(SCCC(=O)Nc2ccccc2Cl)o1		inactive: -23.5%

Three compounds already listed, arranged by length of the SMILES, largest number first.
SMILES	Potency	re-replication activation
CN(Cc1c(C(=O)N/N=C/c2cccc(Cl)c2)nnn1-c1nonc1N)c1ccccc1	inconclusive: 5.8 µM [activator, full curve, poor fit]	
O=C(Nc1nnc(C2CCCCC2)s1)C1CC(=O)N(c2ccc(F)cc2)C1 (stereo unspecified)		inactive: -11.5%
Cc1ccc(NC(=O)c2ccc(S(=O)(=O)N3CCCCCC3)cc2)nc1		inactive: 3.48%

Further compounds follow.

SMILES	Potency	re-replication activation
CC(NC(=O)Cn1cccc1C(=O)c1ccccc1)c1ccccc1 (stereo unspecified)	inconclusive: 2.06 µM [activator, full curve]	
CC1CCC(=C(C#N)C(=O)Nc2cccc(Cl)c2)CC1 (stereo unspecified)		inactive: -17.9%
CCOc1ccc(C(=O)N2CCCC2)cc1	inconclusive: 29.1 µM [activator, single point]	
COCCn1c(SCC(=O)N2CCC(C)CC2)nc2ccccc2c1=O		inactive: -8.44%
CC1=NN(C(=O)c2ccc(Cn3nc(C)c([N+](=O)[O-])c3C)o2)C(O)(C(F)(F)F)C1 (stereo unspecified)		inactive: -1.52%
Cc1nnc2ccc(Oc3ccc(-c4ccccc4)cc3)nn12		inactive: 0.203%
CN(C)S(=O)(=O)c1cccc(-c2nnc3n2CCCCC3)c1		inactive: -5.94%
O=Cc1c(Sc2ccccn2)nc2ccccn2c1=O		inactive: 13.1%
Cc1cc(C)cc(N2C(N)=NC(N)=NC2c2ccccc2F)c1 (stereo unspecified)	inconclusive: 0.146 µM [activator, full curve, poor fit]	
CC(C)OCCCN1C(=O)c2[nH]nc(-c3ccccc3O)c2C1c1cccc(Cl)c1 (stereo unspecified)	inconclusive: 16.4 µM [activator, single point]	
COc1ccc(NC(=O)c2ccc(NC(=O)COC(=O)c3cnc(C)cn3)cc2)cc1	inconclusive: 0.731 µM [activator, partial curve, poor fit]	
COc1ccc(OC)c(S(=O)(=O)Oc2ccc(N)c3ccccc23)c1	inconclusive: 14.6 µM [activator, partial curve]	
CN(C)CCCNc1ncnc2oc(-c3ccccc3)c(-c3ccccc3)c12	inconclusive: 29.1 µM [activator, single point]	
Oc1ccc(N2CCN(c3ccnc4cc(Cl)ccc34)CC2)cc1	inconclusive: 20.6 µM [activator, single point]	
Brc1csc(/C=N/Nc2nc3ccccc3s2)c1		inactive: 10.7%
Cc1ccc2[nH]c3c(=O)n(CC(=O)N4CC(C)CC(C)C4)ncc3c2c1 (stereo unspecified)		inactive: -9.7%
S=C(NCCN(C1CCCCC1)C1CCCC1)Nc1cccc(Cl)c1	inconclusive: 18.4 µM [activator, single point]	
O=C(O)Cc1ccc(NC(=S)NCc2ccco2)cc1		inactive: -1.67%
Cc1ccc(C(=O)CSc2nnc(CNc3ccc(F)cc3)o2)cc1		inactive: -6.37%
COC(=O)Nc1sccc1C(=O)Nc1sccc1C(=O)OC	inconclusive: 31.6 µM [activator, partial curve, poor fit]	
CN1C(=O)/C(=C/c2cccc(Cl)c2)Sc2ccc(C(=O)NCc3cccnc3)cc21	inconclusive: 16.4 µM [activator, single point]	
COc1cc(/C=N/NC(=O)c2ccc(Cn3cc([N+](=O)[O-])cn3)o2)cc(Br)c1O	inconclusive: 29.1 µM [activator, single point]	
O=C(/C=C/c1ccc2c(c1)OCO2)Nc1cccnc1		inactive: 2.15%
